Results reported in patent US9445998B2, “Pharmaceutical dosage forms comprising a low-solubility drug and a polymer” (Bend Research, Inc., priority 2004, dated 2016).
Where a name gives a salt, the structure may show the parent alone. At least one structure is not confirmed: it was looked up by name or label, or the drawing left a doubt.

Experiment: Nuclear magnetic resonance (NMR) dissolution test in deuterated PBS
Assay type: physicochemical
Conditions: deuterated PBS pH 6.5, 37° C.

CCCc1nn(C)c2c(=O)[nH]c(-c3cc(S(=O)(=O)N4CCN(C)CC4)ccc3OCC)nc12 [Control 4, sildenafil citrate]
Sildenafil Concentration (time 30 min): 27 μgA/mL
Sildenafil Concentration (time 60 min): 24 μgA/mL
Sildenafil Concentration (time 90 min): 25 μgA/mL
Sildenafil Concentration (time 120 min): 24 μgA/mL
Sildenafil Concentration (time 150 min): 21 μgA/mL
Sildenafil Concentration (time 180 min): 21 μgA/mL
Sildenafil Concentration (time 210 min): 24 μgA/mL
Sildenafil Concentration (time 240 min): 27 μgA/mL
Sildenafil Concentration (time 270 min): 25 μgA/mL
Sildenafil Concentration (time 300 min): 28 μgA/mL
Sildenafil Concentration (time 330 min): 22 μgA/mL
Sildenafil Concentration (time 360 min): 21 μgA/mL
Sildenafil Concentration (time 390 min): 33 μgA/mL
